Laboratory results: PubChem BioAssay AID1259424 (University of Nebraska Medical Center, 2018)
Aim: 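Rank knockdowns across the genome by resemblance to the KSR1 depletion profile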 (primary screen). System: human HCT116 colon cancer cells. Reagent: siRNA pool against human genes, 50 nM. Read-out: 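Log2 levels of six mRNAs (branched-DNA multiplex), adjusted by two reference genes and the non-targeting median, then scored against the average KSR1 knockdown pattern as Pearson r and euclidean distance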. Reading the numbers: mean correlation with KSR1 profile and KSR1 correlation: higher = expression change more like KSR1 knockdown; mean distance from KSR1 profile: higher = expression change less like KSR1 knockdown.
In all, the deposit lists about 14,000 reagents; this is an unselected part. 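Higher correlation or smaller distance means closer resemblance to KSR1 loss; control wells, including KSR1 knockdowns, recur on many plates.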 No sequences are given here. Not given: the time to read-out.

| gene symbol | PubChem SID | mean correlation with KSR1 profile | mean distance from KSR1 profile | KSR1 correlation, replicate 1 | KSR1 correlation, replicate 2 | KSR1 correlation, replicate 3 |
| --- | --- | --- | --- | --- | --- | --- |
| GOLGA2P10 (GOLGA2 pseudogene 10) | SID364003241 | 0.0639 | 2.57 | -0.142 | 0.539 | -0.298 |
| SEC11A (SEC11 homolog A, signal peptidase complex subunit) | SID363998732 | 0.286 | 3.08 | 0.314 | 0.244 | 0.0841 |
| ACVR2B (activin A receptor type 2B) | SID363992403 | 0.559 | 1.76 | 0.816 | 0.334 | 0.0163 |
| PKNOX1 (PBX/knotted 1 homeobox 1) | SID363995542 | 0.274 | 2.07 | 0.48 | 0.512 | 0.181 |
| DLGAP2 (DLG associated protein 2) | SID363995703 | -0.31 | 1.57 | -0.204 | -0.244 | -0.141 |
| GDPD2 (glycerophosphodiester phosphodiesterase domain containing 2) | SID364000462 | -0.184 | 2.36 | -0.205 | -0.263 | -0.165 |
| RAB33B (RAB33B, member RAS oncogene family) | SID364003585 | 0.797 | 1.38 | 0.699 | 0.783 | 0.747 |
| APOL2 (apolipoprotein L2) | SID364003474 | -0.377 | 2.22 | -0.471 | -0.222 | -0.245 |
| GGA2 | SID363999269 | -0.609 | 3.23 | -0.541 | -0.691 | -0.514 |
| TPSG1 (tryptase gamma 1) | SID363998340 | -0.214 | 1.29 | -0.174 | -0.0677 | -0.0923 |
| PRPF4 (pre-mRNA splicing tri-snRNP complex factor PRPF4) | SID363995657 | 0.252 | 1.74 | -0.0847 | 0.399 | -0.0286 |
| TCF15 (transcription factor 15) | SID363995578 | -0.227 | 1.77 | 0.0187 | 0.865 | -0.486 |
| GMIP (GEM interacting protein) | SID364000204 | 0.201 | 1.32 | 0.31 | 0.196 | 0.229 |
| ING1 (inhibitor of growth family member 1) | SID363996437 | 0.17 | 2.17 | 0.437 | 0.182 | -0.259 |
| F7 (coagulation factor VII) | SID363991467 | -0.433 | 6.02 | -0.478 | -0.32 | -0.58 |
| GASK1B (golgi associated kinase 1B) | SID364000237 | 0.364 | 1.6 | 0.235 | 0.454 | 0.339 |
| ZNF141 (zinc finger protein 141) | SID363994542 | -0.341 | 2.63 | -0.054 | -0.413 | -0.313 |
| SPSB3 (splA/ryanodine receptor domain and SOCS box containing 3) | SID364004506 | 0.545 | 2.25 | 0.783 | 0.527 | 0.0858 |
| SUGP1 (SURP and G-patch domain containing 1) | SID364004811 | 0.147 | 1.71 | -0.169 | 0.345 | 0.288 |
| COX4I1 (cytochrome c oxidase subunit 4I1) | SID363993074 | 0.334 | 1.64 | 0.418 | 0.364 | 0.0752 |
| SLC29A1 | SID363995897 | -0.318 | 2.11 | -0.462 | -0.561 | 0.169 |
| LUC7L3 (LUC7 like 3 pre-mRNA splicing factor) | SID363996948 | -0.783 | 3.18 | -0.716 | -0.727 | -0.636 |
| LUC7L3 (LUC7 like 3 pre-mRNA splicing factor) | SID364000097 | 0.236 | 1.24 | 0.28 | 0.302 | -0.145 |
| CCT6A (chaperonin containing TCP1 subunit 6A) | SID363992981 | -0.0454 | 1.85 | 0.0888 | -0.0241 | 0.118 |
| LMBR1 (limb development membrane protein 1) | SID364002444 | -0.0239 | 1.34 | 0.148 | -0.218 | -0.253 |
| CHMP3 (charged multivesicular body protein 3) | SID363999852 | -0.624 | 3.31 | -0.603 | -0.743 | -0.582 |
| KDM4A (lysine demethylase 4A) | SID363999017 | -0.417 | 3.29 | -0.28 | -0.371 | -0.414 |
| BAZ2A (bromodomain adjacent to zinc finger domain 2A) | SID363998526 | -0.105 | 1.14 | -0.294 | -0.22 | 0.463 |
| NR0B1 (nuclear receptor subfamily 0 group B member 1) | SID363991798 | -0.523 | 1.78 | -0.488 | -0.422 | -0.519 |
| DEFB4A (defensin beta 4A) | SID363995885 | 0.76 | 1.44 | 0.677 | 0.816 | 0.709 |
| NEFL (neurofilament light chain) | SID363996987 | -0.303 | 4.66 | -0.212 | -0.426 | -0.334 |
| NDUFV2 (NADH:ubiquinone oxidoreductase core subunit V2) | SID364001991 | -0.209 | 4.24 | -0.261 | -0.146 | -0.271 |
| PCDHGC5 (protocadherin gamma subfamily C, 5) | SID364001256 | 0.247 | 3.12 | 0.338 | 0.194 | 0.133 |
| VPS13D (vacuolar protein sorting 13 homolog D) | SID363999453 | -0.338 | 1.92 | -0.328 | -0.547 | -0.181 |
| SEPTIN9 (septin 9) | SID363997428 | 0.463 | 1.81 | 0.438 | 0.331 | 0.00704 |
| DRC4 (dynein regulatory complex subunit 4) | SID363992740 | -0.55 | 1.35 | -0.0611 | -0.421 | -0.914 |
| ODF2 (outer dense fiber of sperm tails 2) | SID363993711 | 0.0744 | 1.72 | 0.176 | 0.42 | -0.195 |
| AVP (arginine vasopressin) | SID363991813 | 0.676 | 1.51 | 0.454 | 0.605 | 0.8 |
| MEFV (MEFV innate immunity regulator, pyrin) | SID363991576 | 0.794 | 0.99 | 0.819 | 0.782 | 0.582 |
| CHRNA5 (cholinergic receptor nicotinic alpha 5 subunit) | SID363992040 | 0.78 | 0.821 | 0.906 | 0.58 | 0.242 |
| ACKR3 (atypical chemokine receptor 3) | SID364001600 | 0.301 | 3.14 | 0.353 | 0.0526 | 0.358 |
| TCL1A (TCL1 family AKT coactivator A) | SID364002256 | -0.614 | 5.67 | -0.465 | -0.628 | -0.797 |
| TAS2R42 (taste 2 receptor member 42) | SID364004929 | -0.103 | 1.64 | -0.328 | -0.0317 | -0.12 |
| ESPL1 (extra spindle pole bodies like 1, separase) | SID363998207 | -0.246 | 1.57 | -0.00118 | -0.195 | -0.119 |
| SLC39A7 | SID363997715 | 0.0691 | 2.65 | -0.159 | 0.415 | 0.141 |
| LINC00652 (long independently transcribed non-coding RNA 652) | SID363998620 | -0.356 | 2.06 | -0.531 | -0.45 | -0.343 |
| LGALS2 (galectin 2) | SID363997295 | 0.966 | 1.3 | 0.929 | 0.883 | 0.643 |
| PHACTR2 (phosphatase and actin regulator 2) | SID364005573 | -0.678 | 2.32 | -0.398 | -0.442 | -0.672 |
| SAFB (scaffold attachment factor B) | SID363994118 | -0.485 | 1.92 | -0.512 | -0.487 | -0.325 |
| MKKS (MKKS centrosomal shuttling protein) | SID364001221 | 0.164 | 2.53 | 0.482 | -0.195 | 0.0998 |

Reprinted from the entries so far for reference:
| gene symbol | PubChem SID | mean correlation with KSR1 profile | mean distance from KSR1 profile | KSR1 correlation, replicate 1 | KSR1 correlation, replicate 2 | KSR1 correlation, replicate 3 |
| --- | --- | --- | --- | --- | --- | --- |
| LMBR1 (limb development membrane protein 1) | SID364002444 | -0.0239 | 1.34 | 0.148 | -0.218 | -0.253 |
| CHMP3 (charged multivesicular body protein 3) | SID363999852 | -0.624 | 3.31 | -0.603 | -0.743 | -0.582 |
| KDM4A (lysine demethylase 4A) | SID363999017 | -0.417 | 3.29 | -0.28 | -0.371 | -0.414 |
